From paper doi:10.1101/2024.02.27.582366 come the findings set out here.

Chains of the proteins cited; added tags and fusions are not shown.
UniProt P62746: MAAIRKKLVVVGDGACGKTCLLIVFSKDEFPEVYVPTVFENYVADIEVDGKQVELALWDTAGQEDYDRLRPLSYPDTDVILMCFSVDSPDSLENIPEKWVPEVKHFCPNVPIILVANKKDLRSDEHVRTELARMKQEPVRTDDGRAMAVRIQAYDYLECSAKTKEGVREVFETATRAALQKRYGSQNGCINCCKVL

Results are given in words; binding and its absence hold for the method and conditions named. Binding seen in cells or lysates may run through a third protein. Some results given as binding are weak or reduced against the parent protein; the word gives no strength. Tags and fused reporters may be left off the sequences shown.

For this assay, the target named is T1, Flag-tagged human Thioredoxin1 Cys35Ser mutant (flag-hTrx1C35S) (human) (UniProt P10599).
T1 sequence: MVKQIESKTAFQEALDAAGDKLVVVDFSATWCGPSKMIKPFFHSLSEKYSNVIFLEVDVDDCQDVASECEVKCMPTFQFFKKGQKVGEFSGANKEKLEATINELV
As to the kind of experiment: co-IP.

Take RhoB (from UniProt P62746 1-196): the binding result was “binds”.
